Experimental data reported in patent US6566088.
No constants are given. Whether binding was seen depends on the method and setting. In cells and extracts the contact can be indirect. Some results given as binding are weak or reduced against the parent protein; the word gives no strength.

The chains behind the UniProt entries cited, without tags or fusion partners.
UniProt P40337: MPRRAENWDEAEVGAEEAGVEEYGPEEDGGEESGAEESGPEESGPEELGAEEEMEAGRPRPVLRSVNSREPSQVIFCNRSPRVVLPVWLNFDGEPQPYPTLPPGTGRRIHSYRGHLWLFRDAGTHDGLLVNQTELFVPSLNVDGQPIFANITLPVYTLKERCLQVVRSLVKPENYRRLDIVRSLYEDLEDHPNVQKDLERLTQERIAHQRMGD

Legend:
[1] = molecular target: T1, Biotin-Acp-…*…, human HIF-1a ODD peptide, wild type, Pro564 hydroxylated (human); assay: [^35S]-pVHL pull-down on streptavidin beads after treatment of the bead-bound peptide with in vitro translated HPH 1; scintillation counting
T1 sequence (peptide, N-terminal Biotin-Acp; hydroxyproline at Pro564 (P* of the printed peptide)): DLDLEALAPYIPADDDFQL

[2] = molecular target: T1, Biotin-Acp-…*…, human HIF-1a ODD peptide, wild type, Pro564 hydroxylated (human); assay: [^35S]-pVHL pull-down with synthetic Pro564-hydroxylated biotinylated peptide on streptavidin beads
[3] = molecular target: T2, Biotinylated human HIF-1a ODD peptide with Pro567 to Gly, Pro564 hydroxylated (human); assay: as above
T2 sequence (peptide, N-terminal biotin; hydroxyproline at Pro564): DLDLEALAPYIGADDDFQL

[4] = molecular target: T3, Biotinylated human HIF-1a ODD peptide with L562A, Pro564 hydroxylated (human); assay: as above
T3 sequence (peptide, N-terminal biotin; hydroxyproline at Pro564): DLDLEAAAPYIPADDDFQL

Measured: binding

[^35S]-labeled human pVHL (von Hippel Lindau tumor suppressor protein) (from UniProt P40337 1-213)
binds: all assays above
